Test results as given in PubChem BioAssay AID602254 (Broad Institute, 2012).
Among all 1,000 compounds or so, fewer than 10 were called active.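 Rule for the calls: active = fitted half-maximal concentration no higher than twice the top valid tested dose, with signal falling; inconclusive = flat curve with 30 to 70% inhibition, or poor fit; inactive = the rest.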 The list shows a part of the results. Measured potencies and affinities stand elsewhere.

Molecular target: Golgi-associated PDZ and coiled-coil motif-containing protein (Homo sapiens) (UniProt Q9HD26)
Experiment: blockers of CAL PDZ–TMR peptide complex – biochemical, fluorescence polarization, untagged CAL PDZ, cherry-pick, set 2, dose response (AID 602254);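 note: 0% = DMSO neutral control and -100% = unlabeled peptide PRC23 positive control; more negative means stronger blocking of peptide binding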
Details: Purified CAL PDZ; at 60 µM (top of the series)

Activity change, negative = inhibition, inactive:
CCOC(=O)c1ccc(NC(=O)C2CCCO2)cc1 (stereo unspecified) 5.12%
CCOC(=O)c1ccc(NC(=S)NNC(=O)c2cc(-c3cccnc3)nc3ccccc23)cc1 0.906%
Cc1cn(S(=O)(=O)c2ccc(Cl)cc2)c(C)n1 1.3%
O=C(COc1ccc(S(=O)(=O)Nc2ccc(Cl)cc2)cc1)N1CCOCC1 0.834%
CCN(CCO)Cc1csc2ccc(C(C)(C)C)cc12 -2.52%
CN(C)S(=O)(=O)c1cccc(NC(=O)Cc2ccsc2)c1 -2.05%
CC[C@@H]1CCCCc2ccccc2[C@H](C(=O)C[C@H](O)CC(C)=O)OC1=O -1.36%
O=C(NNC(=O)c1ccc(NC(=O)c2ccccc2)cc1)c1ccc(F)cc1 3.24%
Cc1ccc(CCNC(=O)C2CCC(=O)N(Cc3cccc(F)c3)C2)cc1 (stereo unspecified) -0.437%
O=C(CN1C(=O)NC(c2ccc(F)cc2)C1=O)NC1CCCCC1 (stereo unspecified) 1.55%
CCOCCCNC(=O)N[C@@H](C)C(=O)OC 0.129%
O=C(O)CC(CNC(=O)C1CCCN1C(=O)OCc1ccccc1)c1ccccc1 (stereo unspecified) -2.42%
COc1ccccc1CC(=O)NCc1nn(-c2ccccc2)nc1C -0.368%
CCOc1cc(C)c(Cl)cc1S(=O)(=O)N(CC)CC 0.628%
COc1ccc(/C=N/NC(=O)CNC(=O)c2ccncc2)cc1OC 1.66%
Cn1nc(C(=O)Nc2nc(-c3ccccn3)cs2)c2ccccc2c1=O 1.73%
CCc1nnc(NS(=O)(=O)c2ccc(N3C(=O)c4ccccc4C3=O)cc2)s1 1.69%
CC(=O)c1ccc(N2CCN(S(=O)(=O)c3c(C(=O)N4CCCC4)c(C)n(C)c3C)CC2)cc1 -0.151%
O=C(NCCCN1CCCC1=O)c1cc2c(s1)CCCCC2 1.69%
Cc1nc(CN(C)C(=O)C2CCC(=O)N(CCc3cccc(F)c3)C2)cs1 (stereo unspecified) 1.18%
CC(=O)n1nc(-c2ccccc2)nc1NCc1cccs1 1.06%
Cc1nc(-c2ccc(NC(=O)Cc3ccccc3)cc2)cs1 -1.46%
CCC(CO)NCc1ccc(OC2CCCC2)cc1 (stereo unspecified) -0.802%
CSc1ccc(CN(C)C(=O)CNC(=O)CNS(=O)(=O)c2ccc(C)c(C)c2)cc1 -3.57%
Cc1ccc(NC(=O)c2cccs2)cc1NC(=O)c1cccnc1 -4.15%
Nc1nc(C2CCCN2S(=O)(=O)c2ccc(Cl)cc2)cs1 (stereo unspecified) -0.705%
O=C(CNc1ccccc1F)N/N=C/C1CC=CCC1 (stereo unspecified) -1.68%
CCNC(=S)N(CCc1ccc(OC)c(OC)c1)Cc1cc2cc(OC)ccc2[nH]c1=O 2.69%
O=C(NC1CCCC1)C1CC(=O)N(c2ccc(F)cc2)C1 (stereo unspecified) -3.11%
Cc1cc(Br)cc(Cl)c1OC(=O)c1ccncc1 3.85%
CC(=O)c1ccc(S(=O)(=O)Nc2ccc(Cl)c(S(=O)(=O)N3CCCC3)c2)cc1 -0.859%
O=C(NCCCN1CCOCC1)c1ccc2c(c1)N(Cc1ccccc1)CCS2 7.62%
COc1ccc(Cl)cc1C(=O)NNC(=O)CNC(=O)c1ccc(C)s1 -0.888%
COc1ccc(S(=O)(=O)N2CCCCCC2)cc1NC(C)C(=O)Nc1ccc(NC(C)=O)cc1 (stereo unspecified) 0.725%
COc1ccccc1OCC(=O)NCCS(=O)(=O)N1CCN(c2ccc(F)cc2)CC1 0.117%
O=C(NNC(=O)c1cccc(C(F)(F)F)c1)c1ccc(-n2cnnn2)cc1 1.55%
CCC/C=N/NC(=O)c1cccc(Br)c1 -10.6%
Cc1cccc(C)c1NC(=O)Cn1nnnc1N -0.59%
CCCNC(=O)C1CCC(CNS(=O)(=O)c2ccc3c(c2)CC(C)N3C(C)=O)CC1 (stereo unspecified) 0.309%
Cc1ccc(NC(=O)CCn2c(=O)oc3ccccc32)c(C)c1 -0.153%
CCCCNC(=O)CN1C(=O)c2cccc(N)c2C1=O 0.983%
COC(=O)C1CCN(C(=O)C2CCC(=O)N(CCCc3ccccc3)C2)CC1 (stereo unspecified) -2.7%
Cc1ccccc1C(=O)OC(C)CN1CCN(C)CC1 (stereo unspecified) -8.78%
COc1ccc(OC)c(S(=O)(=O)Nc2c(C)n(C)n(-c3ccccc3)c2=O)c1 2.4%
CC(=O)N1CCc2cc(S(=O)(=O)NCC(=O)NCc3ccccc3Cl)ccc21 -2.99%
C/C(CC(=O)Nc1ccc2c(c1)OCCO2)=N\NC(=O)COc1ccc(Cl)c(C)c1 1.27%
CCN(CC)C(=O)COc1ccc(N(C)S(=O)(=O)c2ccc(NC(C)=O)cc2)cc1 0.142%
Cc1ccnc(NC(=O)c2sc3cc(Cl)ccc3c2Cl)c1 -5.33%
CCOC(=O)CN1C(=O)c2ccccc2C1=O 1.53%
Cc1ccccc1N1CCN(C(=O)C2CCC(=O)N(C3CCCC3)C2)CC1 (stereo unspecified) -1.33%
Cc1cc(F)c(F)cc1C(=O)N1CCCC1 0.296%
Cc1ccc(OCC(=O)Nc2c(C)ccc3nsnc23)cc1 -4.34%
CCc1cc(-c2n[nH]c(=S)n2CC(C)C)cs1 -4.49%
CCn1cc(C(=O)NC2CCCCCC2)c2cc(OC)c(OC)cc2c1=O 7.5%
Cc1noc(C)c1C(=O)OCC(=O)NCCc1ccccc1 -10.1%
Cc1cc(S(=O)(=O)NCCc2ccccc2)ccc1-n1cnnn1 0.393%
CC(=O)c1ccc(NC(=S)N(CCCN(C)C)Cc2ccccc2)cc1 -1.75%
Cc1ccc(-n2ncc(Cl)c2C(=O)NC2CC2)cc1 3.86%
Cc1ccc(NC(=O)CN2C(=O)S/C(=C\c3ccccn3)C2=O)cc1 2.99%
O=C(Nc1ccnn1C1CCN(C2CCC2)CC1)c1ccccc1 -3.97%
COc1ccc(NC(=O)CC(CC(=O)O)c2cc(OC)c(OC)c(OC)c2)cc1 (stereo unspecified) 1.78%

Entries above with bromine (two):
Activity change, negative = inhibition, inactive:
Cc1cc(Br)cc(Cl)c1OC(=O)c1ccncc1 3.85%
CCC/C=N/NC(=O)c1cccc(Br)c1 -10.6%

Structural class: those above with a COOH group (2)
Activity change, negative = inhibition, inactive:
O=C(O)CC(CNC(=O)C1CCCN1C(=O)OCc1ccccc1)c1ccccc1 (stereo unspecified) -2.42%
COc1ccc(NC(=O)CC(CC(=O)O)c2cc(OC)c(OC)c(OC)c2)cc1 (stereo unspecified) 1.78%
